The values below come from patent US20240376176A1 (priority 2021, published 2024).

The series can be described thus: peptide synthesis. To be noted: whole synthesis, HPLC.

With Benz-FFFLL-G-CGEWIET, the “purity (crude or final not stated)” value was 97.77%.

With “Benz-FFFLLG-NH2 (N-terminal benzoyl; C-terminal amide)”, the “purity (crude or final not stated)” value is given as 96.45%.

Regarding “Benz-YFYLLG-NH2 (N-terminal benzoyl; C-terminal amide)”, the “purity (crude or final not stated)” value is 97.24%.
